Source: patent US5614192A, “T cell receptor peptides as therapeutics for immune-related disease” (Connective Therapeutics, Inc., priority 1993, dated 1997)
Not every detail of the peptide structures is certain; ends, links or a residue may be inferred. Ends that are not written are not given here.

Tested on: lymph node cells and Vβ8-44-54 selected T cell line

| Sequence | Response of Lymph Node Cells | Response of T Cell Line |
| --- | --- | --- |
| NMGDELRLIHYSYDVNRTEKG [Vβ8.6-39-59] | 32 ± 4 | 162 ± 3 |
| LRLIHYSYDVN [Vβ8-44-54, LRLIHYSYDVN] | 54 ± 7 | – |
| YSYDVNSTEKG [Vβ8.2-49-59, YSYDVNSTEKG] | 14 ± 2 | 9 ± 2 |
